Some of the results follow. Further columns of the screen follow, without active or inactive calls. The list favours compounds with an active or inconclusive main result. The note in brackets gives the kind of curve behind each potency; many fits are weak.
Test: qHTS Assay for Modulators of Lamin A Splicing
Settings: HeLa LMNA splicing GFP/RFP minigene ratio, 48 h
Outline: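 Read-out is the ratio of GFP to DsRed2 object intensity, acquired by 488 nm laser-scanning cytometry on HeLa lamin A-EGFP minigene reporter cells. Compound incubation 48 hrs at 37 °C in Opti-MEM with 2% FBS; DMSO 0.5% final.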

[1] = measured here: RFP viability control channel
[2] = measured here: GFP splicing reporter channel

Row | Structure (SMILES) | AC50 [1] | AC50 [2]
1 | CCN(CC)S(=O)(=O)c1ccc(Cl)c(C(=O)N2CCc3ccccc32)c1 | 12.6 µM [rising, partial curve] | 
2 | OCCCN=c1cc(-c2ccccc2)oc2ccc(Cl)cc12 | 35.5 µM [rising, single point] | 
3 | C/C(=N\Nc1nc2ccccc2[nH]1)c1ccc(Cl)s1 | 8.91 µM [rising, partial curve, poor fit] | 
4 | CC1CCN(S(=O)(=O)c2cc(C(=O)NCc3ccc(N(C)C)cc3)n(C)c2)CC1 |  | 0.0126 µM [falling, full curve, poor fit]
5 | COc1cc2ncnc(NCc3cccs3)c2cc1OC | 12.6 µM [falling, partial curve] | 
6 | CSc1cccc(NC(=O)CN(c2cc(C)ccc2C)S(C)(=O)=O)c1 | 28.2 µM [rising, single point] | 
7 | CCOC(=O)Nc1nnc(Cc2ccc(Cl)c(Cl)c2)s1 |  | 35.5 µM [rising, single point]
8 | COc1ccc(C2=C(C)C(=O)N(Cc3ccc(C(=O)Nc4ccc(F)cc4C)cc3)S2(=O)=O)cc1 | 0.282 µM [rising, full curve] | 
9 | CCCSc1nc(-n2ncc(C#N)c2N)c2c3c(sc2n1)CCC(C)C3 (centres undefined) | 14.1 µM [rising, single point] | 12.6 µM [rising, single point]
10 | O=C1SCC(c2ccccc2)=NN1Cc1ccccc1 | 20 µM [rising, single point] | 
11 | CCn1cc(C(=O)NCc2ccco2)c(=O)c2cc(S(=O)(=O)N3CCCCCC3)ccc21 | 14.1 µM [rising, partial curve] | 11.2 µM [rising, partial curve, poor fit]
12 | CCOC(=O)c1cc(-c2ccccc2)n(CC(=O)NCc2ccc(C)cc2)c1C | 20 µM [falling, single point] | 0.282 µM [falling, single point]
13 | Cc1nn(Cc2ccc(Cl)cc2)c(C)c1NC(=O)CCCn1nc([N+](=O)[O-])c(Cl)c1C | 22.4 µM [rising, partial curve, poor fit] | 
14 | COc1ccc2c(c1)CCN=C2Cc1ccc(OC)c(OC)c1 | 14.1 µM [rising, single point] | 
15 | O=[N+]([O-])c1cccc(S(=O)(=O)N2CCCC2)c1 | 4.47 µM [rising, partial curve] | 
16 | O=C(CSc1nc2ccccc2[nH]1)N1c2ccccc2Sc2ccccc21 | 15.8 µM [rising, single point] | 
17 | Cc1ccccc1NS(=O)(=O)c1ccc(OCC(=O)NCc2cccnc2)cc1 | 25.1 µM [rising, partial curve, poor fit] | 
18 | O=C(Nc1nnc(-c2ccco2)o1)c1ccc(Cl)cc1 | 2.82 µM [rising, single point] | 
19 | COc1ccc(NC(=O)c2ccccc2C(=O)N2CCCCC2)cc1 | 35.5 µM [rising, single point] | 35.5 µM [rising, partial curve, poor fit]

Quoted from the listing.
CCN(CC)S(=O)(=O)c1ccc(Cl)c(C(=O)N2CCc3ccccc32)c1 | AC50 [1]: 12.6 µM [rising, partial curve]
CCOC(=O)c1cc(-c2ccccc2)n(CC(=O)NCc2ccc(C)cc2)c1C | AC50 [1]: 20 µM [falling, single point]
OCCCN=c1cc(-c2ccccc2)oc2ccc(Cl)cc12 | AC50 [1]: 35.5 µM [rising, single point]
O=C1SCC(c2ccccc2)=NN1Cc1ccccc1 | AC50 [1]: 20 µM [rising, single point]

Additional entries follow.

Row | Structure (SMILES) | AC50 [1] | AC50 [2]
20 | COc1ccc(CCCC(=O)N/N=C/c2cccc(OC)c2O)cc1C | 14.1 µM [rising, partial curve] | 12.6 µM [rising, partial curve]
21 | c1ccc(CN(Cc2cccs2)C(c2cccs2)c2nnnn2C2CCCC2)cc1 (centres undefined) | 20 µM [rising, single point] | 
22 | O=NCc1ccc([N+](=O)[O-])o1 | 0.794 µM [falling, partial curve, poor fit] | 0.0891 µM [falling, partial curve]
23 | O=[N+]([O-])c1cccc(-c2nnc(CNC3CC3)o2)c1 | 3.16 µM [falling, partial curve, poor fit] | 0.00501 µM [falling, full curve, poor fit]
24 | COC(=O)c1c(-c2cccc3ccccc23)csc1NC(=O)Cc1ccc(OC)c(OC)c1 | 11.2 µM [rising, partial curve, poor fit] | 
25 | N#CC1=C(N)S[C@@H](C(=O)c2ccc(F)cc2)[C@@H]1c1cccs1 | 20 µM [rising, single point] | 31.6 µM [rising, single point]
26 | COc1cc(SC)ccc1C(=O)N1CCN(c2ccc(O)cc2)CC1 | 35.5 µM [rising, single point] | 
27 | CCCCNC(=S)Nc1ccc(Cl)cc1 | 20 µM [rising, single point] | 
28 | Cc1c(Cl)cccc1NC(=O)CSc1nc(=O)[nH]c2c1CCCC2 | 28.2 µM [falling, partial curve, poor fit] | 
29 | Cc1cccc(C)c1NC(=O)CCCSc1nnc(-c2ccc(F)cc2)n1-c1ccccc1 | 22.4 µM [rising, partial curve] | 3.55 µM [rising, partial curve, poor fit]
30 | Clc1ccccc1-c1nnc2sc(-c3cccs3)nn12 | 15.8 µM [rising, single point] | 
31 | CCn1c2ccccc2c2nnc(SCC(=O)Nc3cc(C)on3)nc21 | 7.08 µM [rising, partial curve, poor fit] | 0.316 µM [rising, partial curve, poor fit]
32 | CCc1nnc(NC(=O)/C=C/c2ccc(C)o2)s1 | 6.31 µM [rising, partial curve, poor fit] | 35.5 µM [rising, single point]
33 | COc1ccc(C2(CNS(=O)(=O)c3ccccc3)CCOCC2)cc1 |  | 0.178 µM [rising, full curve, poor fit]
34 | COc1ccc(S(=O)(=O)NCC2CCCN(C(=O)c3sccc3C)C2)cc1 (centres undefined) |  | 28.2 µM [falling, single point]
35 | CCc1nnc(NC(=O)CSc2nnc(-c3ccccc3NC(=O)c3ccccc3)o2)s1 | 17.8 µM [rising, partial curve, poor fit] | 
36 | O=C(Nc1nc(-c2ccc3c(c2)OCO3)cs1)C1CC1 | 11.2 µM [rising, partial curve, poor fit] | 
37 | CC(C)(C)NC(=O)[C@@H]1CC[C@@H]2[C@@H]3CC[C@@H]4NC(=O)C=C[C@@]4(C)[C@H]3CC[C@]21C | 1 µM [falling, single point] | 1.12 µM [falling, single point]
38 | O=C(C[n+]1cc(-c2ccc(Br)cc2)n2c1CCCCC2)c1ccccc1 | 12.6 µM [rising, single point] | 

Row | Structure (SMILES) | AC50 [1] | AC50 [2]
39 | COc1ccccc1CNC(=O)C1CCN(C2=NS(=O)(=O)C(c3ccc(C)c(C)c3)=C2C)CC1 | 20 µM [falling, partial curve, poor fit] | 35.5 µM [falling, single point]
40 | CC(C)Cc1nn2c(=O)cc(COC(=O)c3cccc(NS(C)(=O)=O)c3)nc2s1 | 0.00447 µM [falling, full curve, poor fit] | 
41 | Cc1ccc(C)c(N2CCN(c3nc4ccccc4c(=O)n3Cc3ccccc3)CC2)c1 | 11.2 µM [rising, partial curve] | 
42 | Cc1cccc(CSc2ncnc3ccccc23)c1 | 0.112 µM [falling, full curve, poor fit] | 
43 | COc1cc(C2=NOC(C(=O)NCc3ccc(F)cc3)C2)cc(OC)c1OC (centres undefined) | 2.82 µM [rising, full curve] | 
44 | c1ccc(-c2noc(CN3CCN(C(c4ccccc4)c4ccccc4)CC3)n2)cc1 | 14.1 µM [rising, single point] | 
45 | CC1CCN(c2csc3ccc(F)cc3c2=O)CC1 |  | 0.02 µM [falling, full curve, poor fit]
46 | CCOc1ccccc1Nc1nc(-c2sc(NC(=O)c3ccco3)nc2C)cs1 | 22.4 µM [falling, partial curve, poor fit] | 
47 | O=C(NC1CCCCC1)C(c1cccnc1)N(C(=O)CCl)c1ccc(F)cc1 (centres undefined) | 2.24 µM [rising, partial curve] | 
48 | CCOC(=O)N/N=C/c1ccc(Oc2ccccc2)cc1 |  | 35.5 µM [falling, single point]
49 | CC(C)N1CCc2c(sc(NC(=O)c3ccc(S(=O)(=O)N(C)C4CCCCC4)cc3)c2C(N)=O)C1 | 35.5 µM [falling, single point] | 14.1 µM [falling, single point]
50 | Fc1ccc(CNC(=S)Nc2ccc(OC(F)F)cc2)cc1 | 35.5 µM [rising, single point] | 
51 | Cc1ccc(C(C)C)c(OCc2ccc(C(=O)N/N=C/c3ccc(O)c(O)c3)cc2)c1 | 28.2 µM [rising, single point] | 
52 | O=S(=O)(c1ccc(Cl)s1)N1CCC(Cc2ccccc2)CC1 | 35.5 µM [rising, single point] | 35.5 µM [rising, single point]
53 | Cc1ccccc1NCc1nnc2n1CCCCC2 | 6.31 µM [rising, partial curve, poor fit] | 
54 | COc1ccc(CNc2ncnc3ccc(-c4ccoc4)cc23)c(OC)c1 | 12.6 µM [falling, partial curve] | 11.2 µM [falling, partial curve]
55 | Cc1nc2sc(C(c3cccc(F)c3)N3CCC(O)CC3)c(O)n2n1 (centres undefined) | 35.5 µM [rising, single point] | 
56 | CCc1c(C(=O)Nc2ccncc2)csc1C | 12.6 µM [rising, partial curve] | 12.6 µM [rising, single point]
57 | O=C(CSc1ncn[nH]1)N1N=C2/C(=C/c3ccccc3)CCCC2C1c1ccccc1 (centres undefined) | 17.8 µM [rising, single point] | 
